Experimental data reported in the supplement of paper PMC10849652.
This is one part of the list.

Amino acid sequences for entries named in this document (tags omitted). A change or cut given only in a name is not applied to a line headed by its entry.
UniProt O75208: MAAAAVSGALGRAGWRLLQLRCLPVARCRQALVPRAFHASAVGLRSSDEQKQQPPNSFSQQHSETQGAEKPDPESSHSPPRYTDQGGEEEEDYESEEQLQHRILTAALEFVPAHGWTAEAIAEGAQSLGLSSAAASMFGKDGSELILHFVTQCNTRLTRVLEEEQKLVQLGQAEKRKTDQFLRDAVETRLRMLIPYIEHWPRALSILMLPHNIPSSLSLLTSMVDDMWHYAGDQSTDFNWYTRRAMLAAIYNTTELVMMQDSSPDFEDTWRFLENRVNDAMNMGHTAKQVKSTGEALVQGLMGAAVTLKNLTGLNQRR
UniProt P50416: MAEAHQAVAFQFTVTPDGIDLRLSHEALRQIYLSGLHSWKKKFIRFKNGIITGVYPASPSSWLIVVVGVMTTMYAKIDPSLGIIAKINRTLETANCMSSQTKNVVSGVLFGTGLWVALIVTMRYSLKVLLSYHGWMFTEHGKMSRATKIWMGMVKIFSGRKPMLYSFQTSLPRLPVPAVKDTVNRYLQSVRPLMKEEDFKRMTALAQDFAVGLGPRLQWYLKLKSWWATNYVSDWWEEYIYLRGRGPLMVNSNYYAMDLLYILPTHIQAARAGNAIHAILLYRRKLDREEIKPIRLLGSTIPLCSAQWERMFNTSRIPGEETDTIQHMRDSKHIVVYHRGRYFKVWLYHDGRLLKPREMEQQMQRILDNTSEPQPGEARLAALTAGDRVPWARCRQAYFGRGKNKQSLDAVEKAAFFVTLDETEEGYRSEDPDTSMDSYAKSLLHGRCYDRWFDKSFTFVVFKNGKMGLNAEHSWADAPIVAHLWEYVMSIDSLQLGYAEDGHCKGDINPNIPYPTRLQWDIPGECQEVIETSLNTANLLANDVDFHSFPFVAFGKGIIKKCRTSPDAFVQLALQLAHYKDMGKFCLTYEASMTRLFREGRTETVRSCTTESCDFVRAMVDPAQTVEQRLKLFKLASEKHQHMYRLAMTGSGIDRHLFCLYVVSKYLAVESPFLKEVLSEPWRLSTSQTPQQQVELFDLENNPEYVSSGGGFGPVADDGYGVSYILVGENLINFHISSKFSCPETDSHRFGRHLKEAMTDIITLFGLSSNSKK
UniProt Q8IUI8: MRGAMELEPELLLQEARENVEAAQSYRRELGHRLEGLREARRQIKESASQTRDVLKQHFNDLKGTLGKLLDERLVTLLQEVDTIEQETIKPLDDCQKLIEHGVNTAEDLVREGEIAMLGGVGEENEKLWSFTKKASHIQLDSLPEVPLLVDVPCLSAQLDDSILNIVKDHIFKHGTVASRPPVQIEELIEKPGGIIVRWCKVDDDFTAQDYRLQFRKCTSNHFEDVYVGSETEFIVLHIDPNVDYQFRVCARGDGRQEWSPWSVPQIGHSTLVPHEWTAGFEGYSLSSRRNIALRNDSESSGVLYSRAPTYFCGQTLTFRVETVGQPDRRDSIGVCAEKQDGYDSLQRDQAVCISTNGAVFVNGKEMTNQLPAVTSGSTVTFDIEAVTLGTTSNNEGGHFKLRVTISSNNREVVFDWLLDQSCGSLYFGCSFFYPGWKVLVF
UniProt Q9NX08, whole entry, looked up: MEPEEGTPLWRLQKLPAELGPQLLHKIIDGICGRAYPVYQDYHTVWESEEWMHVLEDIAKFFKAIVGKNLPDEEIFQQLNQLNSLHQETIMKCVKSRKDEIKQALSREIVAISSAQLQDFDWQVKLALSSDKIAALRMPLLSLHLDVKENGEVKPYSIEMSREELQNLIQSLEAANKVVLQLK
UniProt P52943: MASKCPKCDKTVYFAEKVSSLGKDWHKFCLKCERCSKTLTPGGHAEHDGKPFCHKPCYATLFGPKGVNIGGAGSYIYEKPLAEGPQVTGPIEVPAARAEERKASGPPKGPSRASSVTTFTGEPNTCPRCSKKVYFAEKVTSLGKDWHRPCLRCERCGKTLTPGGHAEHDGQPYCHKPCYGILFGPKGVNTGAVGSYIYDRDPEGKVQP
UniProt Q7Z5Q1: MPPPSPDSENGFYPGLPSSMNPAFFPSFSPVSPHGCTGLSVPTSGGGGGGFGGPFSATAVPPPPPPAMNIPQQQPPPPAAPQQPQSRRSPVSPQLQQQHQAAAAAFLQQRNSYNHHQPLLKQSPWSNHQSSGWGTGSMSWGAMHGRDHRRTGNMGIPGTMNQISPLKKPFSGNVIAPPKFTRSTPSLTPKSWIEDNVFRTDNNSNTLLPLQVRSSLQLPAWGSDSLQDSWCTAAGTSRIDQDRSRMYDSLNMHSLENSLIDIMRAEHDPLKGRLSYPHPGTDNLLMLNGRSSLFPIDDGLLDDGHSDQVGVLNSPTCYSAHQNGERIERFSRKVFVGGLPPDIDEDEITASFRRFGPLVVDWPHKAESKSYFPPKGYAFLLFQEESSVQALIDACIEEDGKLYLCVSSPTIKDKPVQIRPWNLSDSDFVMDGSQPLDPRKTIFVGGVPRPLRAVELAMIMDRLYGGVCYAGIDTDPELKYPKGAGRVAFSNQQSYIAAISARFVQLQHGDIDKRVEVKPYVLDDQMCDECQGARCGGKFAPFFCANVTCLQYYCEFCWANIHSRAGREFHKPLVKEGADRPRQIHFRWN
UniProt P46108: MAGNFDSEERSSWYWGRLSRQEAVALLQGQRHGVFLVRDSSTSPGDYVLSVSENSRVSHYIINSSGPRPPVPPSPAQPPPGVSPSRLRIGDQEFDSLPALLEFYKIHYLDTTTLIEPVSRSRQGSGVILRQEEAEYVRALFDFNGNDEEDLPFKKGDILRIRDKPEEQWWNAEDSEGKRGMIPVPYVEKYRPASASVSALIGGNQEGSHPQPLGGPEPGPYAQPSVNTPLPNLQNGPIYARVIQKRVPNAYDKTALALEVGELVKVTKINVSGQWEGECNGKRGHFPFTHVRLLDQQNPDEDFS
UniProt P12074, whole entry, looked up: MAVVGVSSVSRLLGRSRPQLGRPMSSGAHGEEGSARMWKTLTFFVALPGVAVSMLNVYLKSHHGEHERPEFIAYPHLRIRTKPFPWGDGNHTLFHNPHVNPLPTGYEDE
UniProt P48730: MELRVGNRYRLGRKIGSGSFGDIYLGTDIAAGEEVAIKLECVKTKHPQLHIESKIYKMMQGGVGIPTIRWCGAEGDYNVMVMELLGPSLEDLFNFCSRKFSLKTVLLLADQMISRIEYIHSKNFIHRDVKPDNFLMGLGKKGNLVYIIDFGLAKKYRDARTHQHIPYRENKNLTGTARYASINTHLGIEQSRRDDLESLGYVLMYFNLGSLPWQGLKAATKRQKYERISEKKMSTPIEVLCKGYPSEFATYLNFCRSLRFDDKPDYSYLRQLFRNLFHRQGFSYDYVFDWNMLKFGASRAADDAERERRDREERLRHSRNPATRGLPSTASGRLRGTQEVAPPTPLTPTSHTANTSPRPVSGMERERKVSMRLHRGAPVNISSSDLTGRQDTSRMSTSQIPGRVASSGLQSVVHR
UniProt Q92828: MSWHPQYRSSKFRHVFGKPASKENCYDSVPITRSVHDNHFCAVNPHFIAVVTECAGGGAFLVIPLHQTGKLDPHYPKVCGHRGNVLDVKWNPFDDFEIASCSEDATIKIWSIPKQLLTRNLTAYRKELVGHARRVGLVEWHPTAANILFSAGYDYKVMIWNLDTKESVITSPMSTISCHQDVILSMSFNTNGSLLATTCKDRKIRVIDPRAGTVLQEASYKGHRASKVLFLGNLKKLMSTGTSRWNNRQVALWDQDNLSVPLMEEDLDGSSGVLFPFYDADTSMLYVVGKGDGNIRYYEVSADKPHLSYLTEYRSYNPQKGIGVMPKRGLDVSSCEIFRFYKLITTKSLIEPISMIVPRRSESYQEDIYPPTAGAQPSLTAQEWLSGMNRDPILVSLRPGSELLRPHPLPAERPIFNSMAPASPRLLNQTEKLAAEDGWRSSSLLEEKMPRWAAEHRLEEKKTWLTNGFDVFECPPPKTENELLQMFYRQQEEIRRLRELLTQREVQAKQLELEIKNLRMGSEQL
UniProt P14854, whole entry, looked up: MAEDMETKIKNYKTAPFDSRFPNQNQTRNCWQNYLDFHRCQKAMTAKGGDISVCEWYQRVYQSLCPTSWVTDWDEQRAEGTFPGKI
UniProt Q03060: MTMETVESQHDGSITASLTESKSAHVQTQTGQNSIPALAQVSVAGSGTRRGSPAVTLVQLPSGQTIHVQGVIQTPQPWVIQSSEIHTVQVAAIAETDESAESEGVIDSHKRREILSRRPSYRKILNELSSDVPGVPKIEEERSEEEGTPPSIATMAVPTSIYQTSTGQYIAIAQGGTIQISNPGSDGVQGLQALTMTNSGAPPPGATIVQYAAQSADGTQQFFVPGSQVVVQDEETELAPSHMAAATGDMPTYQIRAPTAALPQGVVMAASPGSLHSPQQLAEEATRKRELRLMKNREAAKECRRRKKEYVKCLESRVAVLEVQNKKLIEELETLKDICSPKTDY
UniProt Q16630, whole entry, looked up: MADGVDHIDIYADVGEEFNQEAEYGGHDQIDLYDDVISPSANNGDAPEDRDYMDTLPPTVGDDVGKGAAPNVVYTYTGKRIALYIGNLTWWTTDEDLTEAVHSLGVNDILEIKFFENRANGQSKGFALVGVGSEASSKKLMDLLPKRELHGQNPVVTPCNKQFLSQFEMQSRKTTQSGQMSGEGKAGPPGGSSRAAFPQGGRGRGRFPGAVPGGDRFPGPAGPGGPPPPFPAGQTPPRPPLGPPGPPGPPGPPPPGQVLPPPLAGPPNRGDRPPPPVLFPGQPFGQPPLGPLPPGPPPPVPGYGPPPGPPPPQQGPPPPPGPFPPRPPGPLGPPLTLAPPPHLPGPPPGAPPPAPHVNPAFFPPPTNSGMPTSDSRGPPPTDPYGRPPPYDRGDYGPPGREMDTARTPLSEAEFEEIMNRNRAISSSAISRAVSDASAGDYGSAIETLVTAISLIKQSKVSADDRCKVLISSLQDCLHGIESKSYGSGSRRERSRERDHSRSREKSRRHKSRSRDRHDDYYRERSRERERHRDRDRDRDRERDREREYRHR
UniProt Q9UJA2: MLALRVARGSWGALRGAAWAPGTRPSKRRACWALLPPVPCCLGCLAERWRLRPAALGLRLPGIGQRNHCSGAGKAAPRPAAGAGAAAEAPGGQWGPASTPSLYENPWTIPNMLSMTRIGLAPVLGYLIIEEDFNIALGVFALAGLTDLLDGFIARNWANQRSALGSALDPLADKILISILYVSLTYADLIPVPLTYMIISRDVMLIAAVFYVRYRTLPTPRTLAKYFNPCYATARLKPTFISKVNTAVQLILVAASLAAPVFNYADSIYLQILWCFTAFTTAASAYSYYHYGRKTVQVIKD
UniProt O75390: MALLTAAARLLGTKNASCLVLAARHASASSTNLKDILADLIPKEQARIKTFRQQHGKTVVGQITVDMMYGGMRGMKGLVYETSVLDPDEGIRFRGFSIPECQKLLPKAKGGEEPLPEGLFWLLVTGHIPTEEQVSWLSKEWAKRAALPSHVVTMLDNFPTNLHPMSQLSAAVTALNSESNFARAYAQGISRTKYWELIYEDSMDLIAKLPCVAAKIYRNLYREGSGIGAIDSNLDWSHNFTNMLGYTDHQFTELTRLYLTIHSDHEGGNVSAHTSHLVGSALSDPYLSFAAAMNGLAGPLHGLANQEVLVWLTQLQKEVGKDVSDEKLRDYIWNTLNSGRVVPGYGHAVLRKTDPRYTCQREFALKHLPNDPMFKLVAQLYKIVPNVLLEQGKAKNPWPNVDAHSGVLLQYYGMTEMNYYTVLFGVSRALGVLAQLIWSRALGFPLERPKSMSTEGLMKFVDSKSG
UniProt Q9HCP0: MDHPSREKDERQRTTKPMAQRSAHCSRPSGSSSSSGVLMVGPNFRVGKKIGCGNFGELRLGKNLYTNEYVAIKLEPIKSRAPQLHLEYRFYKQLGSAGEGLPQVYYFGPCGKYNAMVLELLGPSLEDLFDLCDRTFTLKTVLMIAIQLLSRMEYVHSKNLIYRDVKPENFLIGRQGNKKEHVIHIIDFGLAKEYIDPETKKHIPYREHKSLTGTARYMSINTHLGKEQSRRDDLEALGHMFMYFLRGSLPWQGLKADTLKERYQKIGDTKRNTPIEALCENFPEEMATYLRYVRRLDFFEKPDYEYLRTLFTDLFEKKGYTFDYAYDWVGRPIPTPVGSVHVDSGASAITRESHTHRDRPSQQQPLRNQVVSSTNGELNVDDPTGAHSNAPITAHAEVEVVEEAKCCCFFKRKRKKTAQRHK
UniProt P68400, whole entry, looked up: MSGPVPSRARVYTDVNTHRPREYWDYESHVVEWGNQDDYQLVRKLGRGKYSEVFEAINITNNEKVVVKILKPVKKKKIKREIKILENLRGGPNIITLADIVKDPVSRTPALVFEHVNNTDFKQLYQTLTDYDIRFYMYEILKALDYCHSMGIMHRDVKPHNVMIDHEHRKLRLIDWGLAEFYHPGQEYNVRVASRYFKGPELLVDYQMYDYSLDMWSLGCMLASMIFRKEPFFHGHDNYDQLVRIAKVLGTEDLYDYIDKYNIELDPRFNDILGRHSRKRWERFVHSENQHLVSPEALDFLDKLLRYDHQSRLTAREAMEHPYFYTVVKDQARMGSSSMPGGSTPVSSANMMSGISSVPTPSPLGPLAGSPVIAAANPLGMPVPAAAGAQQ

Legend:
Experiment in all cases: log2 fold change, soluble protein after heating vs DMSO (PISA); higher = thermal stabilisation; K562 cells, 10 uM, 30 min; active = over 0.2 and 3.5 SD of the protein, either way, in both replicates (recomputed)
[1] = compound: CC1=C(C=C(C=C1)NC(=O)C2=CC(=CC=C2)C(C)(C)C#N)NC3=CC4=C(C=C3)N=CN(C4=O)C
In short: (§1)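 K562 cells at 2×10^6 cells/mL were given 10 μM compound for 30 min. Aliquots then went through 3 min of heating across 48°C-58°C, were pooled, and were extracted in PBS with 0.5% NP-40 at 4°C, and the supernatant after 21,000xg for 90 min was quantified by TMTpro 16plex LC-MS/MS with channel sums equalised. Thermal stability relative to control samples, from duplicates, is given as log2 fold change.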

[2] = compound: CC1=C(C=C(C=C1)NC(=O)C2=CC(=CC=C2)N(C)C)NC(=O)C3=CC=C(C=C3)O
In short: as §1

[3] = compound: CC1=CC=C(C=C1)SC2=C3C=C(SC3=CN=C2)C(=O)N
In short: as §1

[4] = compound: CC1=NC(=CC=C1)C2=C(N=C(N2)C(C)(C)C)C3=CC4=NC=CN=C4C=C3
In short: as §1

Nexturastat A = compound: CCCCN(Cc1ccc(C(=O)NO)cc1)C(=O)Nc1ccccc1 [Nexturastat A]
In short: as §1

vemurafenib = compound: CCCS(=O)(=O)Nc1ccc(F)c(C(=O)c2c[nH]c3ncc(-c4ccc(Cl)cc4)cc23)c1F [vemurafenib]
In short: as §1

[5] = compound: CCCS(=O)(=O)Nc1ccc(F)c(C(=O)c2c[nH]c3ncc(Cl)cc23)c1F
In short: as §1

[6] = compound: CCCc1cc(C)[nH]c(=O)c1CNC(=O)c1cc(-c2ccnc(N3CCN(C)CC3)c2)cc2c1cnn2C(C)C
In short: as §1

givinostat = compound: CCN(CC)Cc1ccc2cc(COC(=O)Nc3ccc(C(=O)NO)cc3)ccc2c1 [givinostat]
In short: as §1

barasertib = compound: CCN(CCCOc1ccc2c(Nc3cc(CC(=O)Nc4cccc(F)c4)[nH]n3)ncnc2c1)CCOP(=O)(O)O [barasertib]
In short: as §1

[7] = compound: CC[C@@H]1C(=O)N(C)c2cnc(Nc3ccc(C(=O)NC4CCN(C)CC4)cc3OC)nc2N1C1CCCC1
In short: as §1

volasertib = compound: CC[C@@H]1C(=O)N(C)c2cnc(Nc3ccc(C(=O)N[C@H]4CC[C@H](N5CCN(CC6CC6)CC5)CC4)cc3OC)nc2N1C(C)C [volasertib]
In short: as §1

[8] = compound: CC[C@H](C)N1C=C(C2=C(C=C(C=C21)C3=CN=C(C=C3)N4CCNCC4)C(=O)NCC5=C(C=C(NC5=O)C)C)C
In short: as §1

epoxomicin = compound: CC[C@H](C)[C@@H](C(=O)N[C@@H]([C@@H](C)O)C(=O)N[C@@H](CC(C)C)C(=O)[C@]1(CO1)C)NC(=O)[C@H]([C@@H](C)CC)N(C)C(=O)C [epoxomicin]
In short: as §1

[9] = compound: CCn1cc(-c2ccnc3[nH]c(-c4cccc(CN(C)C)c4)cc23)c(-c2ccc(NC(=O)N(C)C)cc2)n1
In short: as §1

[10] = compound: CN(C)CC(=O)Nc1ccc2[nH]c(=O)c3ccccc3c2c1
In short: as §1

[11] = compound: CN1C2=C(C3=C1C(=O)N(N=C3)CC4=CC(=CC=C4)N)SC(=C2)S(=O)C
In short: as §1

[12] = compound: CN1CCC(CNc2ccc3ncc(-c4cccc(OC(F)(F)F)c4)n3n2)CC1
In short: as §1

rosiglitazone = compound: CN(CCOC1=CC=C(C=C1)C[C@H]2C(=O)NC(=O)S2)C3=CC=CC=N3 (racemic) [rosiglitazone]
In short: as §1

[13] = compound: CCn1c(C(=O)N(C2CC2)C2CC2)cc2c3c(ncn3C)c(Nc3cc(C)n(C)n3)nc21
In short: as §1

Measured: log2 fold change

COQ9 (UniProt O75208)
active: Nexturastat A -0.266
inactive: [1] 0.016 | [2] 0.045 | [3] 0.054 | [4] 0.064 | vemurafenib 0.041 | [5] -0.004 | [6] -0.006 | givinostat -0.006 | barasertib 0.046 | [7] -0.04 | volasertib -0.05 | [8] 0.001 | epoxomicin -0.041 | [9] 0.002 | [10] 0.018 | [11] -0.057 | [12] -0.135

CPT1A (UniProt P50416)
active: [12] 0.333
inactive: [1] 0.069 | [2] -0.077 | [3] -0.054 | [4] -0.114 | Nexturastat A 0.083 | vemurafenib 0.11 | [5] 0.022 | [6] 0.09 | givinostat 0.048 | barasertib 0.01 | [7] -0.048 | volasertib -0.047 | [8] 0.045 | epoxomicin -0.003 | [9] -0.064 | [10] 0.013 | [11] -0.053

CRLF3 (UniProt Q8IUI8)
inactive: [1] 0.05 | [2] -0.015 | [3] 0.03 | [4] -0.071 | Nexturastat A 0.005 | vemurafenib 0.057 | [5] 0.044 | [6] 0.025 | givinostat 0.065 | barasertib 0.073 | [7] -0.085 | volasertib -0.277 | [8] 0.067 | epoxomicin 0 | [9] -0.041 | [10] 0.024 | [11] 0.031
active: [12] -0.268

COQ10B (UniProt Q9H8M1)
inactive: [1] 0.057 | [2] 0.111 | [4] -0.184 | Nexturastat A -0.097 | barasertib 0.276 | [7] 0.05 | epoxomicin 0.066 | rosiglitazone 0.035 | [11] 0.094

COMMD8 (UniProt Q9NX08)
inactive: [1] 0.01 | [2] -0.034 | [3] 0.085 | [4] 0.044 | Nexturastat A 0.052 | [5] 0.028 | [6] 0.014 | givinostat 0.007 | barasertib 0.069 | [7] -0.107 | volasertib -0.303 | [8] 0.07 | epoxomicin -0.01 | [13] 0.028 | [9] 0.045 | rosiglitazone 0.006 | [11] -0.009 | [12] -0.01

CRIP2 isoform 2 (UniProt P52943)
inactive: [1] -0.044 | [3] 0.019 | [4] -0.029 | Nexturastat A -0.059 | vemurafenib 0.163 | [5] 0.009 | givinostat 0.124 | barasertib -0.1 | [7] 0.066 | volasertib -0.16 | [8] -0.048 | epoxomicin -0.074 | [13] 0.025 | [10] -0.034 | rosiglitazone -0.019

CPTP (UniProt Q5TA50)
inactive: [1] 0.078 | [2] -0.323 | [4] 0.086 | [6] -0.288 | givinostat 0.01 | [13] 0.004

CPEB2 isoform 9 (UniProt Q7Z5Q1)
inactive: [1] 0.081 | [2] -0.077 | [3] 0.028 | [4] -0.197 | Nexturastat A 0.238 | vemurafenib -0.389 | [5] 0.274 | givinostat 0.172 | barasertib -0.024 | volasertib -0.317 | epoxomicin 0.092 | [13] 0.16 | [10] 0.135 | rosiglitazone 0.084 | [11] 0.051

CRK (UniProt P46108)
inactive: [2] -0.019 | [3] 0.015 | [4] 0.091 | Nexturastat A -0.006 | vemurafenib 0.048 | [5] 0.009 | [6] -0.008 | givinostat 0.002 | barasertib 0.046 | [7] -0.059 | volasertib -0.085 | [8] 0.005 | epoxomicin 0.026 | [9] -0.039 | [10] 0.002 | [11] -0.028 | [12] -0.022
active: [1] -0.814

COX6A1 (UniProt P12074)
inactive: [1] -0.059 | [2] -0.083 | [3] -0.053 | [4] -0.03 | vemurafenib -0.133 | [5] -0.08 | [6] 0.328 | givinostat -0.029 | barasertib -0.034 | [7] 0.018 | volasertib 0.091 | [8] 0.027 | [13] 0 | [10] 0.017 | rosiglitazone -0.015 | [11] -0.007

CSNK1D (UniProt P48730)
inactive: [1] -0.001 | [2] 0.003 | [3] -0.033 | [4] -0.018 | Nexturastat A 0.117 | vemurafenib 0.081 | [5] -0.047 | [6] 0.015 | givinostat -0.254 | barasertib -0.032 | volasertib -0.133 | [8] 0 | epoxomicin 0.026 | [10] -0.019 | [11] 0.15 | [12] 0.315

Quoted from the results shown (5 entries):
COQ9 (UniProt O75208)
active: Nexturastat A -0.266
inactive: [1] 0.016 | [2] 0.045 | [3] 0.054 | [4] 0.064 | vemurafenib 0.041 | [5] -0.004 | [6] -0.006 | givinostat -0.006 | barasertib 0.046 | [7] -0.04 | volasertib -0.05 | [8] 0.001 | epoxomicin -0.041 | [9] 0.002 | [10] 0.018 | [11] -0.057 | [12] -0.135

CPT1A (UniProt P50416)
active: [12] 0.333
inactive: [1] 0.069 | [2] -0.077 | [3] -0.054 | [4] -0.114 | Nexturastat A 0.083 | vemurafenib 0.11 | [5] 0.022 | [6] 0.09 | givinostat 0.048 | barasertib 0.01 | [7] -0.048 | volasertib -0.047 | [8] 0.045 | epoxomicin -0.003 | [9] -0.064 | [10] 0.013 | [11] -0.053

CRLF3 (UniProt Q8IUI8)
inactive: [1] 0.05 | [2] -0.015 | [3] 0.03 | [4] -0.071 | Nexturastat A 0.005 | vemurafenib 0.057 | [5] 0.044 | [6] 0.025 | givinostat 0.065 | barasertib 0.073 | [7] -0.085 | volasertib -0.277 | [8] 0.067 | epoxomicin 0 | [9] -0.041 | [10] 0.024 | [11] 0.031
active: [12] -0.268

COQ10B (UniProt Q9H8M1)
inactive: [1] 0.057 | [2] 0.111 | [4] -0.184 | Nexturastat A -0.097 | barasertib 0.276 | [7] 0.05 | epoxomicin 0.066 | rosiglitazone 0.035 | [11] 0.094

COMMD8 (UniProt Q9NX08)
inactive: [1] 0.01 | [2] -0.034 | [3] 0.085 | [4] 0.044 | Nexturastat A 0.052 | [5] 0.028 | [6] 0.014 | givinostat 0.007 | barasertib 0.069 | [7] -0.107 | volasertib -0.303 | [8] 0.07 | epoxomicin -0.01 | [13] 0.028 | [9] 0.045 | rosiglitazone 0.006 | [11] -0.009 | [12] -0.01

The listing continues:

CORO2A (UniProt Q92828)
inactive: [1] 0.014 | [2] 0.157 | [3] 0.01 | vemurafenib 0.063 | [5] 0.054 | [6] 0.026 | givinostat 0.002 | barasertib 0.065 | [7] 0.164 | volasertib -0.075 | [8] 0.01 | [9] 0 | [10] -0.038 | [11] -0.022 | [12] -0.096

COX6B1 (UniProt P14854)
inactive: [1] -0.006 | [2] -0.144 | [3] 0.136 | [4] 0.016 | Nexturastat A -0.001 | vemurafenib 0.015 | [5] -0.005 | [6] -0.069 | givinostat -0.025 | barasertib 0.085 | [7] 0.036 | volasertib 0.023 | [8] -0.013 | epoxomicin 0.333 | [9] -0.014 | [10] -0.081 | [11] -0.054 | [12] 0.038

CREM isoform 1 (UniProt Q03060)
inactive: [1] -0.086 | [2] 0.07 | [3] -0.031 | Nexturastat A -0.135 | vemurafenib -0.15 | [5] -0.07 | [6] -0.062 | givinostat -0.162 | barasertib 0.04 | [7] 0.045 | volasertib 0.006 | [8] 0.056 | epoxomicin -0.025 | [13] 0.06 | [9] -0.111 | [10] -0.052 | rosiglitazone 0.022 | [11] -0.109 | [12] 0.095

CPSF6 isoform 2 (UniProt Q16630)
inactive: [1] 0.054 | [2] 0.02 | [3] -0.027 | [4] 0.02 | Nexturastat A -0.042 | vemurafenib 0.001 | [5] -0.069 | [6] 0.035 | givinostat 0.048 | barasertib -0.042 | [7] 0.016 | volasertib 0.02 | [8] 0.016 | epoxomicin -0.014 | [9] -0.036 | [10] -0.062 | [11] 0.004 | [12] -0.014

CRYM-AS1 (UniProt A6NIL9)
inactive: [1] 0.239 | [2] -0.066 | [4] -0.224 | Nexturastat A 0.332 | vemurafenib 0.161 | [6] -0.049 | givinostat 0.189 | barasertib -0.036 | [7] -0.04 | [8] 0.233 | epoxomicin -0.107 | [9] -0.029 | [10] 0.089 | [11] 0.04
active: [12] -0.714

CRLS1 (UniProt Q9UJA2)
inactive: [3] 0.064 | [4] -0.014 | vemurafenib 0.033 | [5] 0.117 | [6] -0.074 | givinostat -0.108 | [7] 0.029 | volasertib 0.026 | [8] 0.001 | [9] 0.052 | [10] -0.024 | [11] -0.006 | [12] 0.09
active: [1] 0.337

CS (UniProt O75390)
inactive: [1] -0.026 | [2] -0.002 | [3] 0.014 | [4] 0.07 | Nexturastat A -0.125 | vemurafenib 0.023 | [5] 0.033 | [6] 0 | givinostat -0.041 | barasertib 0.027 | [7] 0.04 | volasertib 0.158 | [8] 0.027 | epoxomicin 0.01 | [9] -0.059 | [10] 0.032 | [11] -0.088
active: [12] -0.222

CSNK1G1 (UniProt Q9HCP0)
inactive: [1] -0.023 | [2] 0.251 | Nexturastat A 0.337 | [6] 0.241 | givinostat 0.123 | barasertib -0.013 | [8] -0.224 | epoxomicin -0.077 | [13] -0.152 | rosiglitazone -0.076 | [11] 0.132

CSNK2A1 (UniProt P68400)
inactive: [1] -0.047 | [2] -0.004 | [3] -0.044 | [4] 0.025 | Nexturastat A 0.034 | vemurafenib 0.006 | [5] 0.008 | [6] -0.018 | givinostat -0.003 | barasertib -0.024 | [7] 0.007 | volasertib 0.04 | [8] 0.002 | epoxomicin -0.012 | [9] -0.117 | [10] -0.007 | [11] -0.04 | [12] -0.233
